Reference: PMC12048721

By UniProt entry, the sequences of proteins in these tests, tags left out. Where a name states a change or a piece, a line headed by the entry shows the natural chain unless it says otherwise.
UniProt Q99988: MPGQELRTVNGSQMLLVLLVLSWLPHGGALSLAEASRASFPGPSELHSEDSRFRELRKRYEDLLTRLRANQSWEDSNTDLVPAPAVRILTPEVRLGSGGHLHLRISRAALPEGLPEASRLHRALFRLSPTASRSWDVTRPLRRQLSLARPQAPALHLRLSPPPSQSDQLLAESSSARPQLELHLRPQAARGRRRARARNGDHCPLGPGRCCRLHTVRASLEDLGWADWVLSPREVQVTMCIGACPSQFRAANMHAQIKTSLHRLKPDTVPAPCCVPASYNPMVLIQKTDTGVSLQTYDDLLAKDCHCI

Biological target: T1, EpCAM-3XFLAG (human (cDNA from HCT116 cells)) (UniProt P16422)
T1 sequence: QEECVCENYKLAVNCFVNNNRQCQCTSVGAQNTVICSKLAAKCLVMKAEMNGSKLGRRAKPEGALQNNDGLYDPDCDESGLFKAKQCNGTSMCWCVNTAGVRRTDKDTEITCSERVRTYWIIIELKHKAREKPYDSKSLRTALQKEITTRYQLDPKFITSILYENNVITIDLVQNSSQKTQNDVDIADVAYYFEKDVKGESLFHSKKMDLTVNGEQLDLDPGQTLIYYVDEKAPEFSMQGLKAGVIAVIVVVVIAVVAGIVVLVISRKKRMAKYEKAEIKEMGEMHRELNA
Test: co-IP; HCT116, transfected; NP-40 lysis buffer (Tris-HCl 50 mM, pH 8.0, NaCl 150 mM, NP-40 1%); 1 mg lysate with 1 μg antibody overnight at 4 °C; Protein A/G magnetic beads; EpCAM pulled down with anti-FLAG, NAG-1/GDF15 detected with anti-V5

NAG-1/GDF15 R193A (from UniProt Q99988)
binding: binds

NAG-1/GDF15 WT (from UniProt Q99988)
binding: binds

These are yes or no findings as the source states them, for the method shown. In cells and extracts the contact can be indirect. Binding can be weak; no strength is given. Sequences can lack the tags named with a protein.
